# Experimental data from the supplement of paper PMC8728848.
# The list shows a part of the results.
# B1: Erv41-EDTA (Saccharomyces cerevisiae), Q04651 (protein)
# chain: MKFLVNVALVFMVVYISYIYAAAPEHHHHHHDYDIPTTENLYFQGAMGYIDQQYVVDSQVRDTVQINMDIYVNTKCDWLQINVRDQTMDRKLVLEELQLEEMPFFIPYDTKVNDINEIITPELDEILGEAIPAEFREKLDTRSFFDESDPNKAHLPEFNGCHVFGSIPVNRVSGELQITAKSLGYVASRKAPLEELKFNHVINEFSFGDFYPYIDNPLDNTAQFNQDEPLTTYVYYTSVVPTLFKKLGAEVDTNQYSVNDYRYLYKDVAAKGDKMPGIFFKYNFEPLSIVVSDVRL
# What was measured:
# Test in all cases: glycan array binding signal (z-score within array); higher = stronger binding
# Settings in all cases: glycan notation: IUPAC condensed, linker removed
# Gal6S(b1-4)Glc = target: Gal6S(b1-4)Glc
# How it was run: (§1)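 Glycan array data were curated from 3228 arrays in the Consortium for Functional Glycomics database and kept only where the protein sequence was available. Glycan names were converted to IUPAC-condensed notation, and columns mapping to the same glycan were averaged. The binding signal is a within-array Z-score, averaged across arrays of the same protein sequence at different concentrations or buffers and across linkers. Negative Z-scores can be read as non-binding.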
# Gal6S(b1-4)Glc6S = target: Gal6S(b1-4)Glc6S
# How it was run: as §1
# Gal6S(b1-4)GlcNAc = target: Gal6S(b1-4)GlcNAc
# How it was run: as §1
# Gal6S(b1-4)GlcNAc6S = target: Gal6S(b1-4)GlcNAc6S
# How it was run: as §1
# GalNAc(a1-3)Gal = target: GalNAc(a1-3)Gal
# How it was run: as §1
# GalNAc(a1-3)GalNAc = target: GalNAc(a1-3)GalNAc
# How it was run: as §1
# [1] = target: GalNAc(a1-3)GalNAc(b1-3)Gal(a1-4)Gal(b1-4)Glc
# How it was run: as §1
# [2] = target: GalNAc(a1-3)GalNAc(b1-3)Gal(a1-4)Gal(b1-4)GlcNAc
# How it was run: as §1
# GalNAc(b1-3)Gal = target: GalNAc(b1-3)Gal
# How it was run: as §1
# [3] = target: GalNAc(b1-3)Gal(a1-4)Gal(b1-4)GlcNAc
# How it was run: as §1
# [4] = target: GalNAc(b1-3)Gal(a1-4)Gal(b1-4)GlcNAc(b1-3)Gal(b1-4)Glc
# How it was run: as §1
# [5] = target: GalNAc(b1-3)Gal(a1-6)Gal(b1-4)Glc
# How it was run: as §1
# GalNAc(b1-3)GalNAc = target: GalNAc(b1-3)GalNAc
# How it was run: as §1
# GalNAc(b1-3)GlcNAc = target: GalNAc(b1-3)GlcNAc
# How it was run: as §1
# GalNAc(b1-4)Gal(b1-4)Glc = target: GalNAc(b1-4)Gal(b1-4)Glc
# How it was run: as §1
# GalNAc(b1-4)GlcNAc = target: GalNAc(b1-4)GlcNAc
# How it was run: as §1
# [6] = target: GalNAc(b1-4)GlcNAc(b1-2)Man
# How it was run: as §1
# [7] = target: GalNAc(b1-4)GlcNAc(b1-2)Man(a1-3)[GalNAc(b1-4)GlcNAc(b1-2)Man(a1-6)]Man(b1-4)GlcNAc(b1-4)GlcNAc
# How it was run: as §1
# [8] = target: GalNAc(b1-4)GlcNAc(b1-3)GalNAc(b1-4)GlcNAc
# How it was run: as §1
# GalNAc(b1-4)GlcNAc6S = target: GalNAc(b1-4)GlcNAc6S
# How it was run: as §1
# GalNAc(b1-6)GalNAc = target: GalNAc(b1-6)GalNAc
# How it was run: as §1
# GalNAc3S(b1-4)GlcNAc = target: GalNAc3S(b1-4)GlcNAc
# How it was run: as §1
# GalNAc3S(b1-4)GlcNAc3S = target: GalNAc3S(b1-4)GlcNAc3S
# How it was run: as §1
# [9] = target: GalNAc3S(b1-4)[Fuc(a1-3)]GlcNAc
# How it was run: as §1
# GalNAc4S6S(b1-4)GlcNAc = target: GalNAc4S6S(b1-4)GlcNAc
# How it was run: as §1
# GalNAc6S(b1-4)GlcNAc = target: GalNAc6S(b1-4)GlcNAc
# How it was run: as §1
# Glc(a1-4)Glc = target: Glc(a1-4)Glc
# How it was run: as §1
# [10] = target: Glc(a1-4)Glc(a1-4)Glc(a1-4)Glc
# How it was run: as §1
# Glc(a1-6)Glc(a1-6)Glc = target: Glc(a1-6)Glc(a1-6)Glc
# How it was run: as §1
# [11] = target: Glc(a1-6)Glc(a1-6)Glc(a1-6)Glc
# How it was run: as §1
# Glc(b1-4)Glc = target: Glc(b1-4)Glc
# How it was run: as §1
# Glc(b1-6)Glc = target: Glc(b1-6)Glc
# How it was run: as §1
# GlcA(b1-3)Gal = target: GlcA(b1-3)Gal
# How it was run: as §1
# GlcA(b1-3)GlcNAc = target: GlcA(b1-3)GlcNAc
# How it was run: as §1
# GlcA(b1-6)Gal = target: GlcA(b1-6)Gal
# How it was run: as §1
# [12] = target: GlcA3S(b1-3)Gal(b1-4)GlcNAc(b1-2)Man
# How it was run: as §1
# [13] = target: GlcA3S(b1-3)Gal(b1-4)GlcNAc(b1-3)Gal(b1-4)Glc
# How it was run: as §1
# [14] = target: GlcNAc(a1-3)Gal(b1-4)GlcNAc
# How it was run: as §1
# [15] = target: GlcNAc(a1-4)Gal(b1-3)GlcNAc
# How it was run: as §1
# [16] = target: GlcNAc(a1-4)Gal(b1-4)GalNAc
# How it was run: as §1
# [17] = target: GlcNAc(a1-4)Gal(b1-4)GlcNAc
# How it was run: as §1
# [18] = target: GlcNAc(a1-4)Gal(b1-4)GlcNAc(b1-3)Gal(b1-4)Glc
# How it was run: as §1
# [19] = target: GlcNAc(a1-4)Gal(b1-4)GlcNAc(b1-3)Gal(b1-4)GlcNAc
# How it was run: as §1
# [20] = target: GlcNAc(a1-4)Gal(b1-4)GlcNAc(b1-3)Gal(b1-4)GlcNAc(b1-3)Gal(b1-4)GlcNAc
# How it was run: as §1
# [21] = target: GlcNAc(a1-4)Gal(b1-4)GlcNAc(b1-3)Gal(b1-4)[Fuc(a1-3)]GlcNAc(b1-3)Gal(b1-4)[Fuc(a1-3)]GlcNAc
# How it was run: as §1
binder,measurement,setting,value
B1,glycan array binding signal (z-score),Gal6S(b1-4)Glc,-0.412
same,glycan array binding signal (z-score),Gal6S(b1-4)Glc6S,1.16
same,glycan array binding signal (z-score),Gal6S(b1-4)GlcNAc,-0.37
same,glycan array binding signal (z-score),Gal6S(b1-4)GlcNAc6S,-0.128
same,glycan array binding signal (z-score),GalNAc(a1-3)Gal,-1.08
same,glycan array binding signal (z-score),GalNAc(a1-3)GalNAc,0.121
same,glycan array binding signal (z-score),[1],-1.02
same,glycan array binding signal (z-score),[2],-0.179
same,glycan array binding signal (z-score),GalNAc(b1-3)Gal,-0.147
same,glycan array binding signal (z-score),[3],0.014
same,glycan array binding signal (z-score),[4],0.735
same,glycan array binding signal (z-score),[5],0.146
same,glycan array binding signal (z-score),GalNAc(b1-3)GalNAc,-0.282
same,glycan array binding signal (z-score),GalNAc(b1-3)GlcNAc,-0.383
same,glycan array binding signal (z-score),GalNAc(b1-4)Gal(b1-4)Glc,-0.146
same,glycan array binding signal (z-score),GalNAc(b1-4)GlcNAc,-0.028
same,glycan array binding signal (z-score),[6],0.741
same,glycan array binding signal (z-score),[7],0.523
same,glycan array binding signal (z-score),[8],-0.339
same,glycan array binding signal (z-score),GalNAc(b1-4)GlcNAc6S,-0.332
same,glycan array binding signal (z-score),GalNAc(b1-6)GalNAc,-0.897
same,glycan array binding signal (z-score),GalNAc3S(b1-4)GlcNAc,-0.341
same,glycan array binding signal (z-score),GalNAc3S(b1-4)GlcNAc3S,-0.816
same,glycan array binding signal (z-score),[9],-0.531
same,glycan array binding signal (z-score),GalNAc4S6S(b1-4)GlcNAc,-0.576
same,glycan array binding signal (z-score),GalNAc6S(b1-4)GlcNAc,-0.945
same,glycan array binding signal (z-score),Glc(a1-4)Glc,-0.696
same,glycan array binding signal (z-score),[10],-0.063
same,glycan array binding signal (z-score),Glc(a1-6)Glc(a1-6)Glc,-0.866
same,glycan array binding signal (z-score),[11],-0.285
same,glycan array binding signal (z-score),Glc(b1-4)Glc,0.061
same,glycan array binding signal (z-score),Glc(b1-6)Glc,-0.131
same,glycan array binding signal (z-score),GlcA(b1-3)Gal,-0.075
same,glycan array binding signal (z-score),GlcA(b1-3)GlcNAc,-0.217
same,glycan array binding signal (z-score),GlcA(b1-6)Gal,-0.48
same,glycan array binding signal (z-score),[12],0.613
same,glycan array binding signal (z-score),[13],-0.97
same,glycan array binding signal (z-score),[14],-0.577
same,glycan array binding signal (z-score),[15],-0.133
same,glycan array binding signal (z-score),[16],-0.537
same,glycan array binding signal (z-score),[17],0.055
same,glycan array binding signal (z-score),[18],-1.06
same,glycan array binding signal (z-score),[19],-1.13
same,glycan array binding signal (z-score),[20],-1.15
same,glycan array binding signal (z-score),[21],0.682
